Reference: paper PMC5402393, “Interactions of AMTN, ODAM and SCPPPQ1 proteins of a specialized basal lamina that attaches epithelial cells to tooth mineral” (Scientific Reports, 2017)
Results are given in words; binding and its absence hold for the method and conditions named. For part of these data: Binding seen in cells or lysates may run through a third protein. Some entries that bind do so weakly or less than the wild type. For part of these data: Tags and fused reporters may be left off the sequences shown.

Columns and labels:
[1] = target: T1, human amelotin (hAMTN), fusion to the T18 or T25 fragment of adenylate cyclase (human) (UniProt Q6UX39); experiment: two-hybrid; bacterial two-hybrid (BTH): fusions to the T18 and T25 fragments of B. pertussis adenylate cyclase co-expressed in E. coli BTH101 (cya deficient); cAMP-inducible beta-galactosidase activity, X-gal colonies then ONPG quantification
T1 sequence: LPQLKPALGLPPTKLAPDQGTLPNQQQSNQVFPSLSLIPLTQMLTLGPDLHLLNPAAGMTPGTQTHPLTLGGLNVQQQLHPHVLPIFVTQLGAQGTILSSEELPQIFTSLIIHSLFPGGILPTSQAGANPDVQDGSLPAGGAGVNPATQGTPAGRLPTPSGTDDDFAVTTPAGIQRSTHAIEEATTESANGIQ

[2] = target: human odontogenic ameloblast-associated protein (hODAM), fusion to the T18 or T25 fragment of adenylate cyclase (human) (UniProt A1E959); experiment: as above
[3] = target: T2, human secretory calcium-binding phosphoprotein proline-glutamine rich 1 (hSCPPPQ1), fusion to the T18 or T25 fragment of adenylate cyclase (human); experiment: as above
T2 sequence: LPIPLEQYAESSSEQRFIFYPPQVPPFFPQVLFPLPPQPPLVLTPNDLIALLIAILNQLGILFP

[4] = target: T3, rat SCPPPQ1, bacterial two-hybrid fusion (rat) (UniProt D6QY17); experiment: as above
T3 sequence: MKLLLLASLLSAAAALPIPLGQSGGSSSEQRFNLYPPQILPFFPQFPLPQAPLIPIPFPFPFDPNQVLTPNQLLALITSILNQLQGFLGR

[5] = target: T4, rat AMTN, bacterial two-hybrid fusion (rat) (UniProt Q3HS82); experiment: as above
T4 sequence: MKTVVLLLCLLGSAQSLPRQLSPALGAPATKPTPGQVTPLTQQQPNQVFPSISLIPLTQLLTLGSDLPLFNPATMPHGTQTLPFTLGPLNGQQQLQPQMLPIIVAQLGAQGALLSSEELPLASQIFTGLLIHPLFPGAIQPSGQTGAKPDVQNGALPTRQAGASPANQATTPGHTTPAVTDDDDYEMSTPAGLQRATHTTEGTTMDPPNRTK

[6] = target: rat ODAM, bacterial two-hybrid fusion (rat) (UniProt Q3HS83); experiment: as above
[7] = target: T5, His-tagged human AMTN (pHT vector), co-expressed in E. coli (human) (UniProt Q6UX39); experiment: co-IP; lysate of E. coli BL21(DE3)-star co-expressing two or three His-tagged proteins (pHT vectors); specific antiserum, Protein A-Sepharose, 4 °C, five PBS rinses, glycine pH 1.8 elution; Western blot with anti-His-tag antibodies
T5 sequence: T1 sequence

[8] = target: T6, His-tagged human SCPPPQ1 (pHT vector), co-expressed in E. coli (human); experiment: as above
T6 sequence: T2 sequence

[9] = target: T7, His-tagged human ODAM (pHT vector), co-expressed in E. coli (human) (UniProt A1E959); experiment: as above
T7 sequence: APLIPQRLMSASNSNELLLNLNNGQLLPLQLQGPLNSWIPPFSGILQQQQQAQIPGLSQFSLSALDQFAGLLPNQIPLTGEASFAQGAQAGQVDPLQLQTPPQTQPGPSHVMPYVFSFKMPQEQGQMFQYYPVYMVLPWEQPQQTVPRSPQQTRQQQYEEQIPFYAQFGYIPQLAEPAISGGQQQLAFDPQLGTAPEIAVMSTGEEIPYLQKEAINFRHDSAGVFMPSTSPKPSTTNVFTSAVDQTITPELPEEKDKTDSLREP

[10] = target: recombinant rat ODAM (rat) (UniProt Q3HS83); experiment: SEC; gel filtration of recombinant rat homologs; data not shown; both purified
[11] = target: recombinant rat AMTN (rat) (UniProt Q3HS82); experiment: as above

B1: human odontogenic ameloblast-associated protein (hODAM), fusion to the T18 or T25 fragment of adenylate cyclase (protein, UniProt A1E959 16-279)
chain: T7 sequence
With B1 the binding [1] was “binds”, the binding [2] was “binds” and the binding [3] was “binds”.

B2: rat SCPPPQ1, bacterial two-hybrid fusion (protein, UniProt D6QY17 1-90)
chain: T3 sequence
B2 was tested, and the binding [4] was “binds”.

B3: rat AMTN, bacterial two-hybrid fusion (protein, UniProt Q3HS82 1-212)
chain: T4 sequence
B3 was tested, and the binding [1] was “binds”, the binding [5] was “binds” and the binding [4] was “binds”.

B4: rat ODAM, bacterial two-hybrid fusion (protein, UniProt Q3HS83 1-278)
chain: MKIIILLGLIGATSSAPLITQRLLSASNSHELLLNLNNGQLLPLQFQSAFNSWIPPFPGLLQQQQQQAQVSGHPQFPLSTLESFAGLFPNQIPFSRQVGFAQGGQAGQPDFSQQQTPSQTQQASPMSYVVPVKVPQDQTQMFQYYPVYMLLPWEQPQQTVTSSPQQTGQQLYEEQIPFYNQFGFVPQQAEPGVPGGQQHLVLDSFVGTAPETPGMPAVEGPLYPQKEPIGFKQDNVGVSTPSTSPKPDTGNFFTSEINPTIAPLLPEQKVNADSLREP
With B4 the binding [5] was “binds”, the binding [6] was “binds” and the binding [4] was “binds”.

B5: His-tagged human ODAM (pHT vector), co-expressed in E. coli (protein, UniProt A1E959 16-279)
chain: T7 sequence
For B5, the binding [7] was “binds” and the binding [8] was “binds”.

B6: His-tagged human SCPPPQ1 (pHT vector), co-expressed in E. coli (protein, UniProt A0A411D538 16-79)
chain: T2 sequence
With B6 the binding [7] was “binds” and the binding [9] was “binds”.

B7: His-tagged human AMTN (pHT vector), co-expressed in E. coli (protein, UniProt Q6UX39 17-209)
chain: T1 sequence
B7 was tested, and the binding [9] was “binds” and the binding [8] was “binds”.

B8: recombinant rat ODAM (protein, UniProt Q3HS83 16-278)
chain: APLITQRLLSASNSHELLLNLNNGQLLPLQFQSAFNSWIPPFPGLLQQQQQQAQVSGHPQFPLSTLESFAGLFPNQIPFSRQVGFAQGGQAGQPDFSQQQTPSQTQQASPMSYVVPVKVPQDQTQMFQYYPVYMLLPWEQPQQTVTSSPQQTGQQLYEEQIPFYNQFGFVPQQAEPGVPGGQQHLVLDSFVGTAPETPGMPAVEGPLYPQKEPIGFKQDNVGVSTPSTSPKPDTGNFFTSEINPTIAPLLPEQKVNADSLREP
B8 was tested, and the binding [10] was “binds”.

B9: recombinant rat AMTN (protein, UniProt Q3HS82 17-212)
chain: LPRQLSPALGAPATKPTPGQVTPLTQQQPNQVFPSISLIPLTQLLTLGSDLPLFNPATMPHGTQTLPFTLGPLNGQQQLQPQMLPIIVAQLGAQGALLSSEELPLASQIFTGLLIHPLFPGAIQPSGQTGAKPDVQNGALPTRQAGASPANQATTPGHTTPAVTDDDDYEMSTPAGLQRATHTTEGTTMDPPNRTK
With B9 the binding [11] was “binds”.

B10: human amelotin (hAMTN), fusion to the T18 or T25 fragment of adenylate cyclase (protein, UniProt Q6UX39 17-209)
chain: T1 sequence
In the case of B10, the binding [1] is reported as “binds” and the binding [3] is reported as “binds”.

B11: human secretory calcium-binding phosphoprotein proline-glutamine rich 1 (hSCPPPQ1), fusion to the T18 or T25 fragment of adenylate cyclase (protein, UniProt A0A411D538 16-79)
chain: T2 sequence
In the case of B11, the binding [3] is reported as “binds”.
